Results deposited as PubChem BioAssay AID686938 (Drosophila RNAi Screening Center, 2013)

Aim: 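Looking for CRAC channel components and the factors controlling them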 (primary screen)
Cells: Drosophila S2R+ cells
Knock-down reagent: long dsRNA against Drosophila genes, about 0.25 µg dsRNA per well, roughly 10,000 cells
Duration: 5 days of knock-down before the calcium assay
Treatment: thapsigargin (SERCA pump blocker) to empty calcium stores; entry signal taken 4 min after adding it
Read-out: 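Duplicate raw fluo-4 intensities per well from a plate reader, at rest and four minutes after thapsigargin emptied calcium stores; entry-to-rest ratio filled for only some wells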
Scale: calcium entry signal: higher = stronger calcium signal after store depletion; resting calcium signal: higher = higher resting calcium signal
Hit rule: 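Hit if the duplicate-averaged plate z-score for entry over resting signal is under −3; wells with weak total dye signal (Fmax z < −2) or more than 5 off-targets removed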
Meaning of the calls: active = strongly reduced calcium entry; inactive = no strong reduction
The screen tested about 23,000 reagents; this is a random part of those with a known target gene and a result. Of all reagents, 75 (0.33%) were called active. 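Raw plate signals without normalisation; calls rest on plate z-scores that were not deposited; ratio present for only 364 wells.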 No sequences are given here. Not given: the dose of the treatment.

| target gene | PubChem SID | calcium entry signal, replicate 1 (fluorescence units) | calcium entry signal, replicate 2 (fluorescence units) | resting calcium signal, replicate 1 (fluorescence units) | resting calcium signal, replicate 2 (fluorescence units) | call |
| --- | --- | --- | --- | --- | --- | --- |
| Cyp6a21 (Cytochrome P450 6a21) | SID104187173 | 3.72e7 | 4.39e7 | 1.86e7 | 2.09e7 | inactive |
| Eogt (EGF-domain O-GlcNAc transferase) | SID104180519 | 4.40e7 | – | 2.05e7 | – | inactive |
| mRpL10 (mitochondrial ribosomal protein L10) | SID104180104 | 4.87e7 | – | 1.74e7 | – | inactive |
| kl-3 (retired record) | SID104200522 | 3.47e7 | 3.90e7 | 1.65e7 | 1.68e7 | inactive |
| kl-3 (retired record) | SID104200683 | 4.23e7 | 4.52e7 | 2.20e7 | 2.01e7 | inactive |
| kl-3 (retired record) | SID104200726 | 4.15e7 | 3.79e7 | 1.75e7 | 1.59e7 | inactive |
| ApepP (Aminopeptidase P) | SID104181658 | 4.58e7 | – | 2.26e7 | – | inactive |
| CG10948 | SID104189598 | 2.11e7 | 3.19e7 | 1.07e7 | 1.37e7 | inactive |
| CG8128 | SID104199876 | 2.49e7 | 3.21e7 | 1.22e7 | 1.53e7 | inactive |
| CG8839 | SID104187077 | 3.07e7 | 4.10e7 | 1.43e7 | 1.90e7 | inactive |
| CG3544 | SID104180405 | 3.83e7 | – | 2.19e7 | – | inactive |
| RabGGTb (Rab geranylgeranyltransferase subunit beta) | SID104180596 | 4.22e7 | – | 2.02e7 | – | inactive |
| CG13101 | SID104181993 | 4.97e7 | – | 2.30e7 | – | inactive |
| Upf1 (Upf1 RNA helicase) | SID104199459 | 2.73e7 | 3.19e7 | 1.52e7 | 1.55e7 | inactive |
| CG17816 | SID104195069 | 5.05e7 | 3.48e7 | 2.11e7 | 1.71e7 | inactive |
| Samtor (S-adenosylmethionine sensor upstream of TORC1) | SID104184182 | 4.33e7 | – | 2.25e7 | – | inactive |
| CG7201 | SID104190578 | 2.23e7 | 3.47e7 | 1.17e7 | 1.61e7 | inactive |
| eff (effete) | SID104196732 | 1.81e7 | 2.35e7 | 1.34e7 | 6.12e7 | active |
| Nepl21 (Neprilysin-like 21) | SID104193925 | 3.94e7 | 3.56e7 | 1.58e7 | 1.47e7 | inactive |
| CG15084 | SID104186307 | 2.23e7 | 4.89e7 | 1.07e7 | 2.45e7 | inactive |
| CG15084 | SID104201165 | 3.95e7 | 4.34e7 | 2.32e7 | 1.96e7 | inactive |
| hid (head involution defective) | SID104191108 | 3.99e7 | 7.00e7 | 1.95e7 | 2.73e7 | inactive |
| CG3618 | SID104191538 | 4.56e7 | 5.01e7 | 2.06e7 | 3.52e7 | inactive |

Next part, starting with the last 2 of the part before.
| target gene | PubChem SID | calcium entry signal, replicate 1 (fluorescence units) | calcium entry signal, replicate 2 (fluorescence units) | resting calcium signal, replicate 1 (fluorescence units) | resting calcium signal, replicate 2 (fluorescence units) | call |
| --- | --- | --- | --- | --- | --- | --- |
| hid (head involution defective) | SID104191108 | 3.99e7 | 7.00e7 | 1.95e7 | 2.73e7 | inactive |
| CG3618 | SID104191538 | 4.56e7 | 5.01e7 | 2.06e7 | 3.52e7 | inactive |
| Pp1alpha-96A (Protein phosphatase 1alpha at 96A) | SID104196587 | 3.73e7 | 4.14e7 | 2.08e7 | 1.82e7 | inactive |
| Pp1alpha-96A (Protein phosphatase 1alpha at 96A) | SID104202677 | 3.33e7 | 3.47e7 | 1.76e7 | 1.67e7 | inactive |
| CG14410 | SID104199388 | 3.07e7 | 3.45e7 | 1.54e7 | 1.34e7 | inactive |
| CG31637 | SID104182062 | 4.81e7 | – | 2.38e7 | – | inactive |
| CG31637 | SID104183055 | 1.97e7 | 1.64e7 | 1.09e7 | 8.79e6 | inactive |
| Hs6st (Heparan sulfate 6-O-sulfotransferase) | SID104194140 | 2.43e7 | 3.12e7 | 3.38e7 | 1.32e7 | inactive |
| Hs6st (Heparan sulfate 6-O-sulfotransferase) | SID104194974 | 3.99e7 | 4.39e7 | 4.53e7 | 1.87e7 | inactive |
| Hs6st (Heparan sulfate 6-O-sulfotransferase) | SID104195373 | 3.37e7 | 4.22e7 | 4.57e7 | 2.16e7 | inactive |
| Hs6st (Heparan sulfate 6-O-sulfotransferase) | SID104201403 | 2.86e7 | 3.13e7 | 1.53e7 | 1.53e7 | inactive |
| be (ben) | SID104199399 | 3.32e7 | 3.98e7 | 1.66e7 | 1.82e7 | inactive |
| be (ben) | SID104199736 | 4.15e7 | 2.84e7 | 2.20e7 | 1.41e7 | inactive |
| be (ben) | SID104199737 | 3.96e7 | 2.86e7 | 2.14e7 | 1.41e7 | inactive |
| Nnk (Nicknack) | SID104195066 | 2.74e7 | 3.28e7 | 3.73e7 | 1.51e7 | inactive |
| CG15731 | SID104199490 | 4.33e7 | 4.09e7 | 2.09e7 | 1.96e7 | inactive |
| CG15731 | SID104201472 | 3.48e7 | 3.62e7 | 1.99e7 | 1.59e7 | inactive |
| CG31997 | SID104196897 | 4.29e7 | 3.28e7 | 2.03e7 | 1.40e7 | inactive |
| gnu (giant nuclei) | SID104190289 | 2.53e7 | 3.74e7 | 1.27e7 | 2.48e7 | inactive |
| Mcm6 (Minichromosome maintenance 6) | SID104198472 | 3.58e7 | 3.98e7 | 1.76e7 | 1.79e7 | inactive |
| LSm3 (Like Sm 3) | SID104195712 | 5.26e7 | 5.35e7 | 2.59e7 | 2.26e7 | inactive |
| Acp53Ea (Accessory gland protein 53Ea) | SID104185708 | 4.02e7 | 4.43e7 | 1.83e7 | 2.22e7 | inactive |
| CG43292 | SID104188675 | 4.05e7 | 5.67e7 | 2.32e7 | 2.72e7 | inactive |
| CG43292 | SID104201259 | 4.48e7 | 3.45e7 | 2.59e7 | 1.73e7 | inactive |
| Bili (Band4.1 inhibitor LRP interactor) | SID104194197 | 3.97e7 | 3.15e7 | 1.87e7 | 1.49e7 | inactive |
| CG13838 | SID104194480 | 5.61e7 | 4.44e7 | 2.56e7 | 2.25e7 | inactive |
| CG43322 | SID104182072 | 3.58e7 | 4.19e7 | 1.75e7 | 1.97e7 | inactive |
| CG18476 | SID104195073 | 2.64e7 | 3.21e7 | 1.19e7 | 1.50e7 | inactive |
| CG33137 | SID104201685 | 1.84e7 | 3.08e7 | 9.86e6 | 1.66e7 | inactive |
| CG3955 | SID104186651 | 3.99e7 | 3.27e7 | 1.96e7 | 1.78e7 | inactive |
| CG13081 | SID104181977 | 4.71e7 | 4.64e7 | 2.09e7 | 1.85e7 | inactive |
| CG13308 | SID104189771 | 3.40e7 | 4.79e7 | 1.63e7 | 2.17e7 | inactive |
| Surf4 (Surfeit 4) | SID104196667 | 3.39e7 | 5.28e7 | 1.62e7 | 5.86e7 | inactive |
| Hydr1 (alpha/beta hydrolase 1) | SID104186855 | 4.40e7 | 2.28e7 | 1.96e7 | 1.28e7 | inactive |
| CG32163 | SID104189234 | 5.59e7 | 4.30e7 | 2.54e7 | 2.03e7 | inactive |
| CG32163 | SID104201518 | 2.66e7 | 2.91e7 | 1.25e7 | 1.46e7 | inactive |
| Josd (Josephin domain containing) | SID104198115 | 3.36e7 | 3.23e7 | 1.63e7 | 1.59e7 | inactive |
